Results deposited as PubChem BioAssay AID504774 (Drosophila RNAi Screening Center, 2011)

Screen: 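Genes required for cells to withstand methyl methanesulphonate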 (primary screen)
System: Drosophila Kc167 cells
Knock-down reagent: long dsRNA against Drosophila genes, about 0.25 µg dsRNA per well
Duration: about 6 days: 3 days knock-down, then 3 days with or without MMS
Treatment: methyl methanesulphonate 0.004% (w/v) for 3 days after knock-down
Measured: 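Viability in wells given MMS, read as ATP luminescence, normalised by quantiles plate by plate and averaged across replicates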
Scale: mean viability with MMS: higher = more surviving cells after MMS
In all, the deposit lists about 23,000 reagents; below is an unselected part of those that have a named target and a result. 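Values are quantile-normalised luminescence on an arbitrary scale; higher means more cells surviving MMS.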 A plus sign joins genes that one reagent is predicted to hit. Further read-outs or replicates are left out here. Reagent sequences are not shown.

gene | dsRNA | mean viability with MMS
CG17260 (GeneID 33519) | DRSC00497 | 3.56e6
tgy (GeneID 32896) | DRSC20045 | 3.51e6
KP78b + KP78a | DRSC23338 | 3.09e6
KP78b + KP78a | DRSC23341 | 3.01e6
CG30156 (GeneID 246488) | DRSC04959 | 3.42e6
spn-E (GeneID 41919) | DRSC17064 | 3.57e6
CG16890 (GeneID 34781) | DRSC01890 | 3.66e6
GluRS-m (GeneID 39828) | DRSC10431 | 3.73e6
Arf6 (GeneID 36699) | DRSC05921 | 3.60e6
dtr (GeneID 318856) | DRSC01847 | 3.54e6
vrs (GeneID 41537) | DRSC15832 | 3.50e6
CG5160 (GeneID 34015) | DRSC02821 | 3.58e6
mbt (GeneID 32631) | DRSC20348 | 3.37e6
mbt (GeneID 32631) | DRSC23020 | 3.50e6
GstD1 (GeneID 41503) | DRSC16683 | 3.70e6
Cdk2 (GeneID 42453) | DRSC16921 | 3.44e6
E(var)3-9 (GeneID 41073) | DRSC14451 | 3.55e6
E(var)3-9 (GeneID 41073) | DRSC23242 | 3.52e6
Cth (GeneID 37143) | DRSC07422 | 3.55e6
beta4GalNAcTA (GeneID 36585) | DRSC05944 | 2.07e6
CG13124 (GeneID 34310) | DRSC02220 | 3.70e6
Tomosyn (GeneID 32217) | DRSC19365 | 3.16e6
Tomosyn (GeneID 32217) | DRSC19692 | 3.70e6
Tomosyn (GeneID 32217) | DRSC19782 | 3.43e6
Tomosyn (GeneID 32217) | DRSC19842 | 3.59e6
Cpr73D (GeneID 39897) | DRSC11084 | 3.65e6
CG3107 (GeneID 35475) | DRSC04888 | 3.52e6
CG14598 (GeneID 40893) | DRSC12541 | 3.31e6
CG33272 (GeneID 2768958) | DRSC09116 | 3.39e6
tobi (GeneID 43072) | DRSC14435 | 3.23e6
Vha36-2 (GeneID 36328) | DRSC06294 | 3.40e6
Aasdh (GeneID 34175) | DRSC03467 | 3.37e6
CG7573 (GeneID 39272) | DRSC10884 | 3.60e6
h-cup (GeneID 41879) | DRSC15973 | 3.39e6
CG16957 (GeneID 34755) | DRSC02545 | 3.61e6
CG12395 (GeneID 32571) | DRSC19453 | 3.54e6
RpL8 (GeneID 44251) | DRSC08532 | 3.02e6
RpL8 (GeneID 44251) | DRSC08695 | 2.94e6
Dyrk3 (GeneID 3885567) | DRSC21055 | 3.51e6
CG4049 (GeneID 37860) | DRSC04443 | 3.56e6
mthl3 (GeneID 36961) | DRSC06997 | 3.83e6
Acp53C14c (GeneID 3346203) | DRSC05626 | 3.64e6
Sf3a2 (GeneID 39456) | DRSC09801 | 3.10e6
CG2865 (GeneID 31217) | DRSC18527 | 3.66e6
CG2865 (GeneID 31217) | DRSC18528 | 1.32e6
a6 (GeneID 31127) | DRSC18733 | 3.55e6
CG30279 (retired record) (GeneID 246524) | DRSC22417 | 3.63e6
epsilonTry (GeneID 49080) | DRSC07611 | 3.82e6
klhl10 (GeneID 3354863) | DRSC05274 | 3.45e6
klhl10 (GeneID 3354863) | DRSC19171 | 3.54e6
klhl10 (GeneID 3354863) | DRSC20750 | 3.48e6
klhl10 (GeneID 3354863) | DRSC20925 | 3.48e6
UbcE2H (GeneID 31728) | DRSC18221 | 3.61e6
CG10486 (GeneID 38664) | DRSC09735 | 3.43e6
RfC3 (GeneID 34423) | DRSC03411 | 3.50e6
CG8507 (GeneID 41205) | DRSC16435 | 3.44e6
Lcp65Af (GeneID 45017) | DRSC11213 | 3.79e6
tsh (GeneID 35430) | DRSC03740 | 3.70e6
Lkr (GeneID 38622) | DRSC09754 | 3.63e6
Fer1HCH (GeneID 46415) | DRSC16671 | 3.59e6
tra (GeneID 39849) | DRSC11405 | 3.66e6
PIG-S (GeneID 42979) | DRSC14643 | 3.42e6
PIG-S (GeneID 42979) | DRSC15388 | 3.72e6
PIG-S (GeneID 42979) | DRSC15952 | 3.72e6
CG7791 (GeneID 35511) | DRSC04891 | 3.41e6
Hrb98DE (GeneID 43385) | DRSC16709 | 3.42e6
CG11980 (GeneID 41078) | DRSC14456 | 3.60e6
CG13924 (GeneID 38247) | DRSC08393 | 3.49e6
CG13694 (GeneID 33169) | DRSC00363 | 3.50e6
OXA1L (GeneID 39222) | DRSC09672 | 3.65e6
CG6712 (GeneID 34631) | DRSC02981 | 3.66e6
CG6712 (GeneID 34631) | DRSC21690 | 3.39e6
Wdr62 (GeneID 33367) | DRSC00081 | 3.45e6
Wdr62 (GeneID 33367) | DRSC00082 | 3.52e6
Wdr62 (GeneID 33367) | DRSC00701 | 2.96e6
Wdr62 (GeneID 33367) | DRSC21913 | 3.66e6
bam (GeneID 43038) | DRSC16907 | 3.60e6
PIG-N (GeneID 36049) | DRSC06837 | 3.64e6
IKKepsilon (GeneID 35329) | DRSC03550 | 3.51e6
CG31493 (GeneID 318765) | DRSC12583 | 3.72e6
EMC2B (GeneID 42045) | DRSC15506 | 3.53e6
CG15117 (GeneID 37197) | DRSC06539 | 3.58e6
CG14262 (GeneID 43286) | DRSC14757 | 3.55e6
CG31279 (GeneID 318657) | DRSC13158 | 3.41e6
Reepl1 (GeneID 32103) | DRSC19418 | 3.64e6
CG12898 (GeneID 36096) | DRSC06213 | 3.60e6
Ankrd49 (GeneID 34874) | DRSC01894 | 3.47e6

Laid out differently: results already given
klhl10 (GeneID 3354863) [DRSC19171] — mean viability with MMS: 3.54e6
klhl10 (GeneID 3354863) [DRSC20750] — mean viability with MMS: 3.48e6
klhl10 (GeneID 3354863) [DRSC20925] — mean viability with MMS: 3.48e6
UbcE2H (GeneID 31728) [DRSC18221] — mean viability with MMS: 3.61e6
CG10486 (GeneID 38664) [DRSC09735] — mean viability with MMS: 3.43e6
RfC3 (GeneID 34423) [DRSC03411] — mean viability with MMS: 3.50e6
CG8507 (GeneID 41205) [DRSC16435] — mean viability with MMS: 3.44e6
